Among the data in paper doi:10.1101/742544 are binding values, retold here.

Chains of the proteins cited; added tags and fusions are not shown. Lines headed by an entry give the natural chain unless they say otherwise; changes in a name come on top. Residues count along the entry.
UniProt Q96EP0: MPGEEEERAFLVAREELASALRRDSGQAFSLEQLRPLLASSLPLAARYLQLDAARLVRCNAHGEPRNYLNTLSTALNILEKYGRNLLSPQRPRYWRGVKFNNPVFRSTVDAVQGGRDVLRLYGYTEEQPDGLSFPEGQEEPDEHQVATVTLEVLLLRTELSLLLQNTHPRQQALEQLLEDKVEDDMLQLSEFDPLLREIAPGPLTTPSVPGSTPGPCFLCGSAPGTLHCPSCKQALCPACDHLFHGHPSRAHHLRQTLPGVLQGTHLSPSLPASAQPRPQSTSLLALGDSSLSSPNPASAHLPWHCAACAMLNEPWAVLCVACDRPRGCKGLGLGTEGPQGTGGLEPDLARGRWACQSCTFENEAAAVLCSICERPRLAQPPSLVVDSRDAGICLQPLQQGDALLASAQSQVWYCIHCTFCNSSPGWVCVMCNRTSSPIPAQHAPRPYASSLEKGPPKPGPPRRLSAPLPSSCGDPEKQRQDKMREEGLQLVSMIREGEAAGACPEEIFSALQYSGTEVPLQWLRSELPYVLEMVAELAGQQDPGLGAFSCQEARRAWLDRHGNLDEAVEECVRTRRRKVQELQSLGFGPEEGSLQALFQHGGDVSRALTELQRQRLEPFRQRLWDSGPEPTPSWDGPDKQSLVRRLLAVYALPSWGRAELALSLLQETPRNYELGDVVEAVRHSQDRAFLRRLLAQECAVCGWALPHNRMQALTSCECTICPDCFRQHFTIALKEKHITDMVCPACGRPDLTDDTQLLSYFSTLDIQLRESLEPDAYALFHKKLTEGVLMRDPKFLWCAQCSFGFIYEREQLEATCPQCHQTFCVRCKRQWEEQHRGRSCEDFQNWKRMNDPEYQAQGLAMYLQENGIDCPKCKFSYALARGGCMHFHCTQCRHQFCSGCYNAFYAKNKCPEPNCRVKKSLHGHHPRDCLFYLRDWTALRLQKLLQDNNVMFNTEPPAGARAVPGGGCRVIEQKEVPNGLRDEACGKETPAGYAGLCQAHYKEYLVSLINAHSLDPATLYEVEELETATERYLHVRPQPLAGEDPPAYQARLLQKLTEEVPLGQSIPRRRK
UniProt P01375, residues 77-233: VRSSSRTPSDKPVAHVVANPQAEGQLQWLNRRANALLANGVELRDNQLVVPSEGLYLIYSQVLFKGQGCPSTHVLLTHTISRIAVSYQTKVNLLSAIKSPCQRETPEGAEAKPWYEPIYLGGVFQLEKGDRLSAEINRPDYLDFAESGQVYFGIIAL

No constants are given. Whether binding was seen depends on the method and setting. In cells and extracts the contact can be indirect. Some entries that bind do so weakly or less than the wild type. For some assays here: Where a sequence is shown, tags or fusion partners need not be part of it.

Experiment in all cases: co-IP
Test [1] addresses Myc-HOIP wildtype (human) (human) (UniProt Q96EP0).
The target of test [2] is Myc-HOIP-C885A (human, catalytic inactive mutant) (human) (UniProt Q96EP0).
Test [3] concerns the target Myc-HOIP-K784R (human) (human) (UniProt Q96EP0).
For test [4], the target named is Recombinant human Flag-TNF (human) (UniProt P01375).
Test [5] concerns the target T1, FADD (mouse, endogenous in MEFs) (mouse (endogenous in MEFs)) (UniProt Q61160).
T1 sequence: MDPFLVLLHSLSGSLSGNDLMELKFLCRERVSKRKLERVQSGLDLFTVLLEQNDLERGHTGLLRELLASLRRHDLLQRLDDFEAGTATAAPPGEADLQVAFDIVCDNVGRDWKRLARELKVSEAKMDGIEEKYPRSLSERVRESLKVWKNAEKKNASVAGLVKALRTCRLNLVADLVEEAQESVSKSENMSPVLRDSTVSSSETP

B1: Flag-SHARPIN (human) (protein, UniProt Q9H0F6 1-387)
chain: MAPPAGGAAAAASDLGSAAVLLAVHAAVRPLGAGPDAEAQLRRLQLSADPERPGRFRLELLGAGPGAVNLEWPLESVSYTIRGPTQHELQPPPGGPGTLSLHFLNPQEAQRWAVLVRGATVEGQNGSKSNSPPALGPEACPVSLPSPPEASTLKGPPPEADLPRSPGNLTEREELAGSLARAIAGGDEKGAAQVAAVLAQHRVALSVQLQEACFPPGPIRLQVTLEDAASAASAASSAHVALQVHPHCTVAALQEQVFSELGFPPAVQRWVIGRCLCVPERSLASYGVRQDGDPAFLYLLSAPREAPATGPSPQHPQKMDGELGRLFPPSLGLPPGPQPAASSLPSPLQPSWSCPSCTFINAPDRPGCEMCSTQRPCTWDPLAAAST
For B1, the binding entry in test [1], in test [2] and in test [3] was “binds” in each case.

B2: SHARPIN (mouse, endogenous in MEFs) (protein, UniProt Q91WA6 1-380)
chain: MSPPAGGAAVAADPASPVVLLAVHAAVRPLGAGQDAEAQPRKLQLIADPERPGRFRLGLLGTEPGAVSLEWPLEAICYTVRGPNQHELQPPPGGPGTFSVHFLDPEEAQQWAALVRDATAEGQNGSGSPAPAPAPAMCPISPPCSSMAQIPKATQPEVDLPQSSGNFKKEELATRLSQAIAGGDEKAAAQVAAVLAQHHVALNVQLMEAWFPPGPIRLQVTVEDATSVLSSSSSAHVSLKIHPHCSIAALQDQVFSEFGFPPAVQRWVIGRCLCMPERSLASYGVSQDGDPAFLYLLSAPREVSGQSLQNSKMDRKLGLFPQSLGLPHDLQPSSSSLPSPSQPGWSCPSCTFINASNRPGCEMCSTQRPCAWDPLAAAST
Consider B2, for which the binding result in test [4] and in test [5] was “binds” in each case.
